Source: PubChem BioAssay AID1259254 (NCATS, 2017)
Aim: 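Finding genes that stop cells copying their DNA twice in one cycle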 (primary screen). Cells: human HCT116 colorectal cancer cells. Knock-down reagent: single siRNA against human genes. Duration: 3 days. Read-out: 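Imaged Hoechst DNA stain sorts each cell into a cycle phase by DNA amount; per plate, G2 fraction set to 0% for non-targeting and 100% for GMNN siRNA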. Reading the numbers: G2 robust z-score and G2 cells, % of GMNN control: higher = more G2 cells, more excess DNA replication. Call rule: 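Active siRNAs have a G2 robust z of 5 or more median absolute deviations over the median, which in these data means about 38% or higher of GMNN control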.
Shown is an unselected part of about 59,000 reagents. Of all reagents, about 1,550 (2.6%) are marked active. 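G2 share is only a proxy for re-replication; each gene was hit by three separate siRNAs, and active genes were retested.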 The numbers tell different reagents against one gene apart. Not all columns of the deposit are shown. Not given: the amount of reagent.

For PSMD11 #1, the values are G2 robust z-score 2.78; G2 cells, % of GMNN control 22.5; inactive.
With knock-down of PSMD11 #2 the results were G2 robust z-score -0.618; G2 cells, % of GMNN control -1.38; inactive.
After knock-down of PSMD11 #3, the record shows G2 robust z-score -0.274; G2 cells, % of GMNN control 1.04; inactive.
With knock-down of TGFA #1 the results were G2 robust z-score -0.413; G2 cells, % of GMNN control 0.065; inactive.
For TGFA #2, the entry reads G2 robust z-score -0.667; G2 cells, % of GMNN control -1.72; inactive.
For TGFA #3, the entry reads G2 robust z-score 0.328; G2 cells, % of GMNN control 5.27; inactive.
Depletion of USP26 #1 resulted in: G2 robust z-score 1.2; G2 cells, % of GMNN control 11.4; inactive.
Against USP26 #2, the values are G2 robust z-score 1.77; G2 cells, % of GMNN control 15.4; inactive.
After knock-down of USP26 #3, the record shows G2 robust z-score -1.01; G2 cells, % of GMNN control -4.11; inactive.
After knock-down of RTL3 #1, the screen gave G2 robust z-score -0.557; G2 cells, % of GMNN control -0.948; inactive.
Against RTL3 #2, the entry reads G2 robust z-score -0.411; G2 cells, % of GMNN control 0.0752; inactive.
Against RTL3 #3, the entry reads G2 robust z-score 1.7; G2 cells, % of GMNN control 14.9; inactive.
LHFPL2 #1 scored G2 robust z-score 1.18; G2 cells, % of GMNN control 11.3; inactive.
Silencing of LHFPL2 #2 resulted in: G2 robust z-score 0.588; G2 cells, % of GMNN control 7.11; inactive.
With knock-down of LHFPL2 #3, the record shows G2 robust z-score 0.131; G2 cells, % of GMNN control 3.89; inactive.
Against WDTC1 #1 the deposit lists G2 robust z-score 0.384; G2 cells, % of GMNN control 5.67; inactive.
Silencing of WDTC1 #2 came out at: G2 robust z-score 0.573; G2 cells, % of GMNN control 7; inactive.
Against WDTC1 #3, the entry reads G2 robust z-score 0.303; G2 cells, % of GMNN control 5.1; inactive.
With knock-down of TRIM32 #1 the results were G2 robust z-score 0.0653; G2 cells, % of GMNN control 3.43; inactive.
Depletion of TRIM32 #2 gave: G2 robust z-score -0.186; G2 cells, % of GMNN control 1.66; inactive.
Against TRIM32 #3, the entry reads G2 robust z-score -0.426; G2 cells, % of GMNN control -0.0293; inactive.
Knock-down of FBLL1 #1 came out at: G2 robust z-score 1.11; G2 cells, % of GMNN control 10.8; inactive.
Depletion of FBLL1 #2 gave: G2 robust z-score -0.39; G2 cells, % of GMNN control 0.22; inactive.
FBLL1 #3 showed G2 robust z-score -0.944; G2 cells, % of GMNN control -3.67; inactive.

Individual results from the list.
TGFA #1, G2 cells, % of GMNN control: 0.065
Result of LHFPL2 #1 under “outcome”: inactive
